Data source: PubChem BioAssay AID1259424 (University of Nebraska Medical Center, 2018)

Aim: 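Rank knockdowns across the genome by resemblance to the KSR1 depletion profile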 (primary screen)
System: human HCT116 colon cancer cells
Reagent: siRNA pool against human genes, 50 nM
Measurement: 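Six signature mRNAs by branched-DNA multiplex assay, scaled to two housekeeping genes and non-targeting median, log2; matched to mean KSR1 knockdown profile by Pearson correlation and euclidean distance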
Scale: mean correlation with KSR1 profile: higher = expression change more like KSR1 knockdown; mean distance from KSR1 profile: higher = expression change less like KSR1 knockdown
This is a random part of about 14,000 reagents. 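Higher correlation or smaller distance means closer resemblance to KSR1 loss; control wells, including KSR1 knockdowns, recur on many plates.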 Not all columns of the deposit are shown. Not stated in the record: the time to read-out.

SNTG2 (syntrophin gamma 2) → mean correlation with KSR1 profile = -0.0922; mean distance from KSR1 profile = 1.91
TRPM2 → mean correlation with KSR1 profile = -0.084; mean distance from KSR1 profile = 0.997
HCFC1R1 (host cell factor C1 regulator 1) → mean correlation with KSR1 profile = -0.137; mean distance from KSR1 profile = 3.88
EDN2 (endothelin 2) → mean correlation with KSR1 profile = -0.499; mean distance from KSR1 profile = 4.15
GOLT1B (golgi transport 1B) → mean correlation with KSR1 profile = -0.321; mean distance from KSR1 profile = 1.36
PCM1 (pericentriolar material 1) → mean correlation with KSR1 profile = -0.0414; mean distance from KSR1 profile = 2.42
MCTP1 (multiple C2 and transmembrane domain containing 1) → mean correlation with KSR1 profile = 0.271; mean distance from KSR1 profile = 1.76

Looked up above:
Value of GOLT1B (golgi transport 1B) under “mean distance from KSR1 profile”: 1.36
TRPM2, mean correlation with KSR1 profile = -0.084

Continued.
GFOD2 (Gfo/Idh/MocA-like oxidoreductase domain containing 2) → mean correlation with KSR1 profile = -0.108; mean distance from KSR1 profile = 2.72
MSH4 (mutS homolog 4) → mean correlation with KSR1 profile = 0.094; mean distance from KSR1 profile = 2.52
SETDB1 (SET domain bifurcated histone lysine methyltransferase 1) → mean correlation with KSR1 profile = 0.258; mean distance from KSR1 profile = 1.9
ACTR1B (actin related protein 1B) → mean correlation with KSR1 profile = -0.359; mean distance from KSR1 profile = 2.02
GCNT1 (glucosaminyl (N-acetyl) transferase 1) → mean correlation with KSR1 profile = -0.545; mean distance from KSR1 profile = 4.58
MAPK8IP2 (mitogen-activated protein kinase 8 interacting protein 2) → mean correlation with KSR1 profile = 0.727; mean distance from KSR1 profile = 2.8
GNB5 (G protein subunit beta 5) → mean correlation with KSR1 profile = -0.337; mean distance from KSR1 profile = 5.61
RAVER2 (ribonucleoprotein, PTB binding 2) → mean correlation with KSR1 profile = -0.516; mean distance from KSR1 profile = 1.88
CEACAM8 (CEA cell adhesion molecule 8) → mean correlation with KSR1 profile = -0.0609; mean distance from KSR1 profile = 2.64
RPS19 (ribosomal protein S19) → mean correlation with KSR1 profile = -0.115; mean distance from KSR1 profile = 1.15
PLSCR3 (phospholipid scramblase 3) → mean correlation with KSR1 profile = 0.424; mean distance from KSR1 profile = 1.44
SOWAHC (sosondowah ankyrin repeat domain family member C) → mean correlation with KSR1 profile = -0.0601; mean distance from KSR1 profile = 1.77
